In paper PMC5668243:
Results are given in words; binding and its absence hold for the method and conditions named. Binding seen in cells or lysates may run through a third protein. Some results given as binding are weak or reduced against the parent protein; the word gives no strength.

The chains behind the UniProt entries cited, without tags or fusion partners. Residues count along the entry.
UniProt P11021, residues 19-654: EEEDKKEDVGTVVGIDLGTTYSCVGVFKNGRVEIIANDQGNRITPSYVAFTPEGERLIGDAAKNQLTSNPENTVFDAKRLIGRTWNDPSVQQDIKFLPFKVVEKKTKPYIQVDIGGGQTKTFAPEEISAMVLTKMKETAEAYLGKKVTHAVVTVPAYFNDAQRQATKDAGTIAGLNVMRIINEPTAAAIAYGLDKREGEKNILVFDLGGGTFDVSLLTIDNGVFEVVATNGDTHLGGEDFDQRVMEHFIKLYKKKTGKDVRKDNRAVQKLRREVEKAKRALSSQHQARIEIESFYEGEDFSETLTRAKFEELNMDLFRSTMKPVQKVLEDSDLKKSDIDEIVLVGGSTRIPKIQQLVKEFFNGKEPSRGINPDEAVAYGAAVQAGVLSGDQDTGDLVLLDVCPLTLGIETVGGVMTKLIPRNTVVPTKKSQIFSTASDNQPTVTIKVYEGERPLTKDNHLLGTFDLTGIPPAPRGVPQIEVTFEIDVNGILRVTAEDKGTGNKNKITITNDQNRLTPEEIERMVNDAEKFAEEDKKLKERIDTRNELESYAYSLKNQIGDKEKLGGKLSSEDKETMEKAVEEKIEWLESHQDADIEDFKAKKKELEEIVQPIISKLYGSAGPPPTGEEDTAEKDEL
UniProt P14625, residues 22-803: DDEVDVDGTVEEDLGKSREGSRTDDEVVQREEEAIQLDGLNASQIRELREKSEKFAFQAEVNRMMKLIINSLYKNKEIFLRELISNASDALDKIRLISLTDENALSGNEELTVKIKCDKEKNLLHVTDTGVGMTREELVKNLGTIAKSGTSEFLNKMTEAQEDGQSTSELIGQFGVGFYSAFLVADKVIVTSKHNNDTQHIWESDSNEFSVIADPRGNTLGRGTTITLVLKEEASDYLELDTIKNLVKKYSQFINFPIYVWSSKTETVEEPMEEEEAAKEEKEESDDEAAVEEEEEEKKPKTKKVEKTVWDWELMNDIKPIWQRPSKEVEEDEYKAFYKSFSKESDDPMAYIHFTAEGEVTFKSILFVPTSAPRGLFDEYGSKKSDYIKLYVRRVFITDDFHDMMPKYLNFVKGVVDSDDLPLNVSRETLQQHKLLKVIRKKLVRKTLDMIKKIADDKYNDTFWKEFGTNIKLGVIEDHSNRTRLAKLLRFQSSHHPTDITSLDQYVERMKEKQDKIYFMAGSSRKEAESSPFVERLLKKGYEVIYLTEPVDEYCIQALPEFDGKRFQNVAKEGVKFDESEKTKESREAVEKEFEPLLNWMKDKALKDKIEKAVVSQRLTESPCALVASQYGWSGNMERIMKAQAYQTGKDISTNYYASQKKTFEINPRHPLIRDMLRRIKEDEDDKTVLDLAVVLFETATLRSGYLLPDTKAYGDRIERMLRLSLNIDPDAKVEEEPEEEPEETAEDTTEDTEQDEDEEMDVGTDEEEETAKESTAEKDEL
UniProt P02751, residues 32-2477: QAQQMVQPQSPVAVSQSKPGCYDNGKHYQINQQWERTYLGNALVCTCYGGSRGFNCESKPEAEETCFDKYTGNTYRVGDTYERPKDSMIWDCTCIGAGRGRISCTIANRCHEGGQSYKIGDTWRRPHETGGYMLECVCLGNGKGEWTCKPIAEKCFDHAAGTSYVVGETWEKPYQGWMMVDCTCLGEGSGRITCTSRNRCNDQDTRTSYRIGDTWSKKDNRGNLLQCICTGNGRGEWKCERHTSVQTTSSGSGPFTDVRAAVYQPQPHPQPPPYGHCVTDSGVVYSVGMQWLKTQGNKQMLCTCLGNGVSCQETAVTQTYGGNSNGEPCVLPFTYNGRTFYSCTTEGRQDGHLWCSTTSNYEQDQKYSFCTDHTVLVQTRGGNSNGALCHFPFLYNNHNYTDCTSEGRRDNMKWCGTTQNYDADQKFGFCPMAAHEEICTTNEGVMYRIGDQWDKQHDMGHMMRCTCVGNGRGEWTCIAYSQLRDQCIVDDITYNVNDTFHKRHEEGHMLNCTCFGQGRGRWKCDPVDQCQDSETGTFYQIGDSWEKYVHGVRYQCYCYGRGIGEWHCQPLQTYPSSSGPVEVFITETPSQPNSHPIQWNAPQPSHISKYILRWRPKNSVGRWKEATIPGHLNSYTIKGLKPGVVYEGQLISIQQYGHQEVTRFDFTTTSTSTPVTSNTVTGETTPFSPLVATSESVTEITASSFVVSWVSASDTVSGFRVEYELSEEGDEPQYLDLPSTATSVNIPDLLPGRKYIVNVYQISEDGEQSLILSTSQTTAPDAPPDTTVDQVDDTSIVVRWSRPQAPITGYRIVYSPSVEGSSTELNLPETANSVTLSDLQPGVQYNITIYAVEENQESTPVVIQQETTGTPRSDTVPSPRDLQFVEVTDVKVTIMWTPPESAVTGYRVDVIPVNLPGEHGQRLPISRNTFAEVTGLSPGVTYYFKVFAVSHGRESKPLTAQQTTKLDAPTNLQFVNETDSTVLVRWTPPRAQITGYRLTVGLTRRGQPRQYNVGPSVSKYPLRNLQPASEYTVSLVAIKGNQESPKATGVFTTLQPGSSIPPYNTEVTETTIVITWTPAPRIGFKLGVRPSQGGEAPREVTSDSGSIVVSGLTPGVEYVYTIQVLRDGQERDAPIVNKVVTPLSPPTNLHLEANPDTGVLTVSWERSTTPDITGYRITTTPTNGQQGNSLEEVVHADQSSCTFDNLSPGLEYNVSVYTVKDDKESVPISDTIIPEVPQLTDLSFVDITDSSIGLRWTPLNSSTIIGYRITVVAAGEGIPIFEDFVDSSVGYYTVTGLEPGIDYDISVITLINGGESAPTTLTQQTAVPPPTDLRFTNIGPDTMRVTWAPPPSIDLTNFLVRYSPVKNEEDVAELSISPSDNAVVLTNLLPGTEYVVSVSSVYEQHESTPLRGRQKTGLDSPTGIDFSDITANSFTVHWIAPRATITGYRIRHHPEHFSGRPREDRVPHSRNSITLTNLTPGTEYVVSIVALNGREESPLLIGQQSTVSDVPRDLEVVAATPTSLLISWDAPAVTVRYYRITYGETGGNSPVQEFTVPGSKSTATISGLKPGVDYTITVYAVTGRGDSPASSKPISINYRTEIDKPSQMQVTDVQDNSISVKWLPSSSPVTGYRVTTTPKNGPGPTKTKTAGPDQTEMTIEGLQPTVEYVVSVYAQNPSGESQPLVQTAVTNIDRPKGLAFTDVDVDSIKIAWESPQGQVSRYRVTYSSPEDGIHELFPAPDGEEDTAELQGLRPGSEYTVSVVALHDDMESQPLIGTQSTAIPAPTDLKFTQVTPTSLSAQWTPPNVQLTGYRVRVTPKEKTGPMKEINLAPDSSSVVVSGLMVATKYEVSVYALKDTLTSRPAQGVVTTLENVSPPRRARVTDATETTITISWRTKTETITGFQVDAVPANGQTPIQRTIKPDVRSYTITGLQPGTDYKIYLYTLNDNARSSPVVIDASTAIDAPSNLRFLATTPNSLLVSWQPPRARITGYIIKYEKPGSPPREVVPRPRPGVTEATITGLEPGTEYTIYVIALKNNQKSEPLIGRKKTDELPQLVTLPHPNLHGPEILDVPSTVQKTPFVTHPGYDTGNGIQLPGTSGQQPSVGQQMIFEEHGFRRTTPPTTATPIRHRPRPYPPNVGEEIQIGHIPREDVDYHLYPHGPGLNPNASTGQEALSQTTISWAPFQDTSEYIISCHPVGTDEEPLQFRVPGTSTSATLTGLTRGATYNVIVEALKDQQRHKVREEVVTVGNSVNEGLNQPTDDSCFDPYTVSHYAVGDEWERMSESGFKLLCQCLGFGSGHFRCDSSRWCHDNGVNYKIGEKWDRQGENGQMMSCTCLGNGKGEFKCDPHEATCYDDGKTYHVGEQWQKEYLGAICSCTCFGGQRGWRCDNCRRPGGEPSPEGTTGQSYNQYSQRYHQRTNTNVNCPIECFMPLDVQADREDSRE

What was measured:
[1] = molecular target: GRP78 (human (endogenous in GTM3)) (UniProt P11021); experiment: co-IP; anti-KDEL antibody (2.5 ug) on Dynabeads protein G; total lysates (100 ug) of GTM3 cells treated with Veh or Dex for 3 days, 10 min at room temperature; washed 3 times with lysis buffer containing 0.5% Triton X-100; blotted for ECM proteins, GRP78 and GRP94; IgG antibody as negative control
[2] = molecular target: GRP94 (human (endogenous in GTM3)) (UniProt P14625); experiment: as above

fibronectin (from UniProt P02751 32-2477)
binding [1]: binds
binding [2]: binds
